Measured values: PubChem BioAssay AID504375 (National Center for Advancing Translational Sciences (NCATS), 2011)
Hit rate of the full screen: of about 1,600 compounds, about 25 (2%) were called active. Roughly 7% stayed inconclusive and do not appear here. Calls come from the whole dose curve; as a rule, active = well fitted inhibition curve with a large enough effect; inconclusive = small, poorly fitted or top-dose-only effect, or effect the other way; inactive = no such curve, though single readings can be large or run the other way. The list shows a part of the results.

Sequences of proteins named here, by UniProt entry; tags and fusion partners are left off.
UniProt Q01196, whole entry, looked up: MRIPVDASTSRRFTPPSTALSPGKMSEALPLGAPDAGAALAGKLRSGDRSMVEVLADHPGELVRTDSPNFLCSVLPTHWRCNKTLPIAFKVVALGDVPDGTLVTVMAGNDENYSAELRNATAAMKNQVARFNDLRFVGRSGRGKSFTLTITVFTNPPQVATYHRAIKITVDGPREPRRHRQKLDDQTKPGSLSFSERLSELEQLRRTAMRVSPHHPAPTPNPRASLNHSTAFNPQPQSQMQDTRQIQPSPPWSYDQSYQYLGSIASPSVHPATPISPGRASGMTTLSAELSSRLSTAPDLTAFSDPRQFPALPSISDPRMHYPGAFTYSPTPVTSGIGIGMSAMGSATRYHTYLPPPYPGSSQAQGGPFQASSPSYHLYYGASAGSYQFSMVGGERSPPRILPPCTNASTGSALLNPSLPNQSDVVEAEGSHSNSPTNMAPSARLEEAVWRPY
UniProt Q13951, whole entry, looked up: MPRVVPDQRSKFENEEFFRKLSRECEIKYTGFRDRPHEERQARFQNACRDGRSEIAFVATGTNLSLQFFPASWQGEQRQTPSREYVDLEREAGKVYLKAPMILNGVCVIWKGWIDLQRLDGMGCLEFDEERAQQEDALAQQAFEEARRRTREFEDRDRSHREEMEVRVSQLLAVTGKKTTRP

The molecules below were run against Runt-related transcription factor 1 (Homo sapiens) + Core-binding factor subunit beta (Homo sapiens) (UniProt Q01196+Q13951) (assay: qHTS Assay for Compounds Blocking the Interaction Between CBF-beta and RUNX1 for the Treatment of Acute Myeloid Leukemia: Hit Validation with Orthogonal Assay). Settings: CBFbeta-RUNX1 binding orthogonal assay, biochemical; at 41 µM (top of the series) unless noted.
From the text: NIH Chemical Genomics Center [NCGC]
NIH Molecular Libraries Probe Production centers Network [MLPCN]
Assay Submitter (PI): Paul Liu
Core Binding Factor (CBF) abnormalities are associated with 20-25% of all acute myeloid leukemias (AML), of which 5-10% are further sub classified as acute myelomonocytic leukemia with eosinophilia, also known as M4Eo in the FAB classification scheme. This subtype of leukemia is usually associated with chromosome 16 inversion (p13:q22). Chromosome 16 inversion results in formation of the fusion oncogene CBFB-MYH11, which encodes the fusion protein CBF-beta-SMMHC.
It has been hypothesized that the interference of CBF-beta and RUNX1 binding could have therapeutic implications for patients with CBF mediated leukemias. We developed a CBF-beta and RUNX1 binding assay in AlphaScreenTM format and optimized it for high throughput screening to search for inhibitors. The goal of this project is to screen MLPCN's compound collection (MLSMR) for identifying the inhibitors of the interaction between CBF-beta and RUNX1 proteins as research probes. If these probes work well in the animal models, the ultimate goal of this project is to development a new drug treatment for this disease.
This assay can not be used to assess how apparent inhibitors interfere with protein binding, and whether inhibitors specifically bind to either protein. Disruption of this protein-protein interaction, through any mechanism, is the intended target activity.
The present data set was run to confirm the activity of hits from the primary screen using an orthogonal assay technology for measuring protein-protein interaction disruption.
A TR-FRET (time resolved fluorescence resonance energy transfer) assay was performed using the same assay buffer, protein concentrations and incubation times as described previously in the AlphaScreen assay, except that terbium (Tb+) labeled anti-his-antibody and XL665 linked streptavidin were used to capture the binding signal. The Tb+ labeled anti-his-antibody captures His(6)-CBF and XL665 linked streptavidin binds to biotin-RUNX1. The binding of RUNX1 to CBFbrings Tb+ and XL665 to proximity resulting in a TR-FRET signal. Briefly, in a white 384-well plate, 10 µl/well of mixture of biotin-RUNX1 and His(6)-CBFwere incubated with 10 µl/well buffer (positive control) or 10 µl/well compounds (negative control) for 20 min followed by an addition of 10 µl/well of Tb+ labeled anti-his(6)-antibody and XL665 linked streptavidin. After 90 min of incubation in the dark, the assay plate was measured in the Envision plate reader using TR-FRET detection mode. For the 1536-well plate format, 3 µl/well mixture of biotin-RUNX1 and His(6)-CBF (30 nM per protein) was incubated with 23 nl/well compound (dissolved in 100% DMSO) or the equivalent DMSO concentration (positive control) for 30 min followed by the addition of 1 µl/well of 0.44 ng Tb+ labeled anti-his(6)-antibody and 5 nM streptavodin-XL665. After 90 min of incubation, the assay plate was measured in the Envision plate reader.
The TR-FRET assay for detecting interaction between HIV-I Tat and […] was similarly performed with the recombinant full-length HIV-I Tat CLADE B and HIV-I Tat Biotin conjugated proteins supplied by Diatheva (Fano, Italy). Briefly, the His-CBF and Biotin-RUNX1 complex at a working concentration of 83.3 nM per protein were pre-incubated in assay buffer for 10 minutes on ice. Then HIV-I Tat or unlabeled CBF were added to reach final concentrations (Supplementary Figure 4b) and incubated for 5 minutes. Finally anti-His antibody and streptavidin-XL665 at a final concentration of 2.2 ng and 5 nM, respectively, were added to the plate, which was incubated for 1 hr prior to reading on the PerkinElmer Envision plate reader.
Keywords: MLSMR, MLPCN, NIH Roadmap, qHTS, NCGC, Core binding factor, CBF, CBF-beta, Acute myeloid leukemia
% is set by controls: 0 for no effect and ±100 for the full control effect.

Row | SMILES | activity change, negative = inhibition
1 | O=c1[nH]c(=S)[nH]c(O)c1/C=N/N1CCOCC1 | inactive: -7.93%
2 | CC(=O)CC(c1ccccc1[N+](=O)[O-])c1c(O)c2ccccc2oc1=O (configuration not stated) | inactive: -0.954%
3 | CCCCc1ccc(C(=O)O)nc1 | inactive: -1.88% [at 82.4 µM]
4 | CNC(=O)O/N=C(\C)Cc1nnn(-c2cc(C)on2)n1 | inactive: 1.39%
5 | CC1CN=C(Nc2ccc(F)c(Cl)c2)S1 (configuration not stated) | inactive: 6.88%
6 | O=c1c2ccccc2nc(Cc2cccc([N+](=O)[O-])c2)n1-c1ccc(O)cc1 | inactive: 8.14%
7 | O=C(O)COc1ccccc1/C=C1\C(=O)NC(=O)N(CCC2=CCCCC2)C1=O | inactive: 2.04%
8 | Cc1ccc(-n2c(O)c(C=N)c(=O)n(-c3ccc(C)cc3)c2=O)cc1 | inactive: 24.2%
9 | Cc1cc(OC(=O)N(C)C)nc(-c2ccc(C)c(Cl)c2)n1 | inactive: 7.35%
10 | CN1C(=O)C(=Cc2cccnc2)C(=O)N(C)C1=O | inactive: -0.869%
11 | COc1cc(CN=Cc2c(O)n(C(C)(C)C)c(=O)[nH]c2=O)cc(OC)c1 | inactive: 4.78%
12 | CCC(C)n1c(O)c(C=NCCc2ccccc2)c(=O)[nH]c1=S (configuration not stated) | inactive: -10.2%
13 | CCC(=NCc1cc(OC)cc(OC)c1)c1c(O)n(C2CCCCC2)c(=O)[nH]c1=O | inactive: 0.905%
14 | CNC(=O)Oc1ccc(N(C)C)cc1C(C)C | inactive: -13.7%
15 | CCC(=NCc1cccnc1)c1c(O)n(-c2ccccc2C)c(=O)[nH]c1=O | inactive: -2.88%
16 | O=C1/C(=C\c2cccnc2)N2CCC1CC2 | inactive: -8.53%
17 | CCC(=Nc1cccc(C(F)(F)F)c1)c1c(O)n(C)c(=O)n(C)c1=O | inactive: 5.85%
18 | Cn1c(O)c(C=NCCN2CCN(C(=O)Nc3ccccc3)CC2)c(=O)n(C)c1=O | inactive: -3.66%
19 | C[C@H]1CC[C@H]2NCCN[C@H]2C1 | inactive: -18.8%

Exported in markdown: entries from further up.

| Row | SMILES | activity change, negative = inhibition |
| --- | --- | --- |
| 3 | CCCCc1ccc(C(=O)O)nc1 | inactive: -1.88% [at 82.4 µM] |
| 7 | O=C(O)COc1ccccc1/C=C1\C(=O)NC(=O)N(CCC2=CCCCC2)C1=O | inactive: 2.04% |
| 8 | Cc1ccc(-n2c(O)c(C=N)c(=O)n(-c3ccc(C)cc3)c2=O)cc1 | inactive: 24.2% |
| 16 | O=C1/C(=C\c2cccnc2)N2CCC1CC2 | inactive: -8.53% |

Further structures follow:

Row | SMILES | activity change, negative = inhibition
20 | Cn1c(O)c(C(=Nc2ccc(F)cc2)c2ccccc2)c(=O)n(C)c1=O | inactive: 15.3%
21 | CCCC(=O)c1cc(CP(=O)(OCC)OCC)oc1C | inactive: -5.04%
22 | CCCC(=O)c1ccc(CP(=O)(OCC)OCC)o1 | inactive: 8.34%
23 | CCC(=NCc1ccco1)c1c(O)n(-c2ccccc2C)c(=O)[nH]c1=O | inactive: 11%
24 | CCOC(=O)C(O)(c1ccc(NC(=O)c2ccc(Cl)c(Cl)c2)cc1)C(F)(F)F (configuration not stated) | inactive: 3.11%
25 | COCc1cc(OC(=O)N(C)C)nc(-c2ccccc2)n1 | inactive: -2.72%
26 | CC(C)[C@@]1(NC(=O)[C@H]2CC3c4cccc5[nH]cc(c45)C[C@H]3N(C)C2)O[C@@]2(O)C3CCCN3C(=O)[C@@H](Cc3ccccc3)N2C1=O (some centres not stated) | inactive: 9.43%
27 | CCN1CCN(c2nc([N+](=O)[O-])nn2C)CC1 | inactive: 39.9%
28 | CCn1c(O)c(C=NCCN2CCOCC2)c(=O)[nH]c1=S | inactive: -1.84%
29 | CCC1(C(=O)c2ccc(C)cc2)C2c3ccccc3OC(=O)C21C(=O)O (configuration not stated) | inactive: -8.33%
30 | CC(C)OP(=O)(Oc1ccc(C(O)C(Cl)(Cl)Cl)cc1)OC(C)C (configuration not stated) | inactive: 7.68%
31 | O=c1[nH]c(=S)n(-c2ccc(F)cc2)c(O)c1/C=N/N1CCOCC1 | inactive: 10.3%
32 | CCCCn1c(O)c(C(CC)=NCCCn2ccnc2)c(=O)[nH]c1=O | inactive: 11.3%
33 | CCOC(=O)[C@]1(C#N)[C@@H]2C=CC(C(N)=O)=CN2[C@@H](C(N)=O)[C@@H]1c1ccc(F)cc1 | inactive: 14.7%
34 | CC(C)(C)n1cc(C(=O)c2ccccc2)cc1-c1ccccc1 | inactive: -1.88%
35 | CCCCn1c(O)c(/C=C2/C=CC=N2)c(=O)[nH]c1=O | inactive: 29.1%
36 | Cc1cc(C(=O)Nc2ccccc2)nn1C(C)(C)C | inactive: 11%
37 | Cc1nc(SCc2c(Cl)cccc2Cl)nc(OC(=O)N(C)C)c1C | inactive: 1.97%
38 | CC(=O)Nc1ccc([As](=O)(O)c2ccc([N+](=O)[O-])cc2)cc1 | inactive: 27.5%

Row | SMILES | activity change, negative = inhibition
39 | CCCCCCn1c(O)c(/C=N/N2CCCCCC2)c(=O)[nH]c1=O | inactive: 5.46%
40 | Cc1cc(OC(=O)N(C)C)nc2c1c(C)nn2C | inactive: -8.88%
41 | CCCCn1c(O)c(/C=N/N2CCOCC2)c(=O)[nH]c1=S | inactive: -13.6%
42 | COc1cccc(C(=O)N2CCC3(CC2)OCCO3)c1 | inactive: -2.62%
43 | CCN1CCc2ccccc2C1 | inactive: -11.9%
44 | CCCCCCn1c(O)c(C=Nc2ccccc2N2CCOCC2)c(=O)[nH]c1=S | inactive: 9.02%
45 | Cc1onc(-c2c(Cl)cccc2Cl)c1C(=O)Nc1ccc2c(C(F)(F)F)cc(=O)oc2c1 | inactive: 1.55%
46 | COCc1cc(OC(=O)N(C)C)nc(-c2ccc(C)c(Cl)c2)n1 | inactive: -5.63%
47 | COC1C(OC(=O)c2ccc(C)[nH]2)C(O)C(Oc2ccc3c(O)c(NC(=O)c4ccc(O)c(CC=C(C)C)c4)c(=O)oc3c2Cl)OC1(C)C (configuration not stated) | inactive: 4.43%
48 | C=CCn1c(O)c(C(C)=Nc2ccc3c(c2)CCC3)c(=O)[nH]c1=O | inactive: 1.26%
49 | O=c1[nH]c(=S)[nH]c(O)c1N=Nc1cccc(S(=O)(=O)N2CCOCC2)c1 | inactive: 56%
50 | Cn1c(O)c(C(=Nc2ccc(F)cc2)c2ccccc2Cl)c(=O)n(C)c1=O | inactive: -7.4%
51 | Cc1cccc(N2C(=O)NC(=O)/C(=C\c3ccc(N4CCOCC4)cc3)C2=O)c1 | inactive: 11.1%
52 | O=c1[nH]c(=S)n(-c2ccccc2)c(O)c1C=NCc1ccccn1 | inactive: 1.8%
53 | CCOP(=O)(Cc1cc(C(C)=O)c(C)o1)OCC | inactive: -5.54%
54 | CN1CCN(c2nc(N)cc(=O)[nH]2)CC1 | inactive: -9.35%
55 | C=CCn1c(O)c(C(C)=NCC2CCCO2)c(=O)[nH]c1=O (configuration not stated) | inactive: -9.91%
56 | N=Cc1c(O)n(-c2ccccc2)c(=O)n(-c2ccccc2)c1=O | inactive: -0.232%
57 | COP(=O)(Cc1ccc(C#N)o1)OC | inactive: -13.1%
